According to patent US20260317299A1, “PIKFYVE PROTEIN KINASE DEGRADATION AGENT AND USE THEREOF” (Shanghai Institute of Organic Chemistry, Chinese Academy of …, priority 2023, published 2026):
Structures were worked out from names or drawings and are uncertain.

By UniProt entry, the sequences of proteins in these tests, tags left out.
UniProt Q9Y2I7, whole entry: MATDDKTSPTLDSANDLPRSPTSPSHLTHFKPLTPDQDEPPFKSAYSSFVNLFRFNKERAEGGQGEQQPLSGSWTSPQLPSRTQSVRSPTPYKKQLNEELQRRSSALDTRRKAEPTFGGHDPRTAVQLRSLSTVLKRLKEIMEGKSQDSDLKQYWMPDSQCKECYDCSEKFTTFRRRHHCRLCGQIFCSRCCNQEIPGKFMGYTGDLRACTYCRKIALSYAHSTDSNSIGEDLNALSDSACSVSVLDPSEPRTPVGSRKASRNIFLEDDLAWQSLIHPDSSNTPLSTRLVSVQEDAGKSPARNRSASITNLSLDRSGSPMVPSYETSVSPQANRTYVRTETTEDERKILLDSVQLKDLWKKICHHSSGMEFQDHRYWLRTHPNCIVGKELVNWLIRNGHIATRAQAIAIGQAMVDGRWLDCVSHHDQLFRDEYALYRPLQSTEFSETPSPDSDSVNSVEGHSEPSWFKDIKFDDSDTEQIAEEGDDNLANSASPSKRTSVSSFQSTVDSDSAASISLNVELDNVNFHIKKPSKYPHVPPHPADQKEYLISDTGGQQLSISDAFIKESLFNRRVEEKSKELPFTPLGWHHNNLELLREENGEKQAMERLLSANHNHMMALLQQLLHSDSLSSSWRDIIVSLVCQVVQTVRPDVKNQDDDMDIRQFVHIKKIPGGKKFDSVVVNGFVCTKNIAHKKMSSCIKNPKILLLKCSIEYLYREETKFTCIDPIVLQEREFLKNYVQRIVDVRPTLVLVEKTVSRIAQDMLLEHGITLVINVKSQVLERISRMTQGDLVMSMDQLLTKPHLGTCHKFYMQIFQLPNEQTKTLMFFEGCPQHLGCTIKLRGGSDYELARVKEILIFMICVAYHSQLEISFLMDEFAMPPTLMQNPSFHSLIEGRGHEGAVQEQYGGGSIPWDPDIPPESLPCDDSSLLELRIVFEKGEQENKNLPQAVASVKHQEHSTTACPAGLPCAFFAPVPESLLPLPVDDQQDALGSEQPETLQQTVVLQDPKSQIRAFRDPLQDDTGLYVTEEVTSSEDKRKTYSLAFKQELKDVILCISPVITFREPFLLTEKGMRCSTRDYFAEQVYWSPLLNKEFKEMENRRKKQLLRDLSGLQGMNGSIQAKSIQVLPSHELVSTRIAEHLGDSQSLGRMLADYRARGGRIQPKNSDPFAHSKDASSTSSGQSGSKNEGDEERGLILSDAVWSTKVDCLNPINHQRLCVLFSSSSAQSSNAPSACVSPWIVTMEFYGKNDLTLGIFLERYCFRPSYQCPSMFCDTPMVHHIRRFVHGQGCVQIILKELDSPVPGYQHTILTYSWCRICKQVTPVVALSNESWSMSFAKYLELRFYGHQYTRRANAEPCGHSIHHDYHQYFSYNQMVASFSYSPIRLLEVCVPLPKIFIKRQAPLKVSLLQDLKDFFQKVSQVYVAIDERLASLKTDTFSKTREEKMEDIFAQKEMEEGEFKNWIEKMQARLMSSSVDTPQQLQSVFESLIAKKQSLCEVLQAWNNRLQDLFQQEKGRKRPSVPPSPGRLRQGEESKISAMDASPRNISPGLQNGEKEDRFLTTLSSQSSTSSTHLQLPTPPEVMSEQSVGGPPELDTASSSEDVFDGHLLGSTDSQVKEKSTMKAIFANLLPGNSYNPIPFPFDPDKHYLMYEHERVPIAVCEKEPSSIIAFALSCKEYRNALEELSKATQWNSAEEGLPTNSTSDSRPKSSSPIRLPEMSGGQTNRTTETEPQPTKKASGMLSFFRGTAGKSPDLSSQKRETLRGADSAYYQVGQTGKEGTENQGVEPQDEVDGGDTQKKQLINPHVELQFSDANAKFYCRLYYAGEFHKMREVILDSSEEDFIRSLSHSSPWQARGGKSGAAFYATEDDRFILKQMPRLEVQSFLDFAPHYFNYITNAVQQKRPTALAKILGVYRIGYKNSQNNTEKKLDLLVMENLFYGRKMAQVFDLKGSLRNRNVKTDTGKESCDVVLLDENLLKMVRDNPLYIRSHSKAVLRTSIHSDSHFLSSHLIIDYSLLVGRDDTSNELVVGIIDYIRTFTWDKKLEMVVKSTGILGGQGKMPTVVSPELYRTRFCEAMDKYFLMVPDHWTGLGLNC

Molecular target: PIKfyve (Homo sapiens, UniProt Q9Y2I7)
Assay: Degradation of PIKfyve proteins in VCaP tumor cells (24 h, Western blot)
Settings: read-out: DC50 (concentration that achieves 50% degradation activity), 37° C., compared with DMSO control, WB
Method: Method: 200 μL of cells at a density of 5×10^6 cells/ml were inoculated into a 6-well plate, and then different concentrations of drugs were added. The cells were treated at 37° C. for 24 h. The […] was collected and washed with PBS twice. Then, 100-200 μL of 1×SDS lysate was added, and the cell lysate was collected into a centrifuge tube. The cells were disrupted ultrasonically for 10-20 sec, and boiled for 10 min. Protein samples were subjected to SDS-PAGE electrophoresis at a voltage of 90 V, transferred to PVDF membranes at 110 V, blocked with 5% BSA for 4 h, incubated with primary antibodies (PIKfyve, GAPDH) at 4° C. overnight, and incubated with secondary antibodies (anti-Rabbit IgG or anti-Mouse IgG) at room temperature. The membranes were washed with TBST buffer, developed with an ECL developing solution, and then imaged to obtain protein band signals, with single-concentration WB results as shown in FIG. 1. Compared with the DMSO control group, the concentration that achieves 50% degradation activity is defined as DC50.

DC50: 1 to 100 nM
SMILES: Cc1cccc(/C=N/Nc2cc(N3CCOCC3)nc(OCCc3ccc(NC(=O)CCCCCNC(=O)COc4cc(-c5scnc5C)ccc4CNC(=O)[C@@H]4C[C@@H](O)CN4C(=O)[C@@H](NC(=O)C4(F)CC4)C(C)(C)C)cc3)n2)c1
